Measurements published in publication PMC6825199.
No constants are given. Whether binding was seen depends on the method and setting. In cells and extracts the contact can be indirect. These calls come from enrichment with a bait or labelling near it, and not all partners need be listed.

Sequences of proteins named here, by UniProt entry; tags and fusion partners are left off.
UniProt Q17551: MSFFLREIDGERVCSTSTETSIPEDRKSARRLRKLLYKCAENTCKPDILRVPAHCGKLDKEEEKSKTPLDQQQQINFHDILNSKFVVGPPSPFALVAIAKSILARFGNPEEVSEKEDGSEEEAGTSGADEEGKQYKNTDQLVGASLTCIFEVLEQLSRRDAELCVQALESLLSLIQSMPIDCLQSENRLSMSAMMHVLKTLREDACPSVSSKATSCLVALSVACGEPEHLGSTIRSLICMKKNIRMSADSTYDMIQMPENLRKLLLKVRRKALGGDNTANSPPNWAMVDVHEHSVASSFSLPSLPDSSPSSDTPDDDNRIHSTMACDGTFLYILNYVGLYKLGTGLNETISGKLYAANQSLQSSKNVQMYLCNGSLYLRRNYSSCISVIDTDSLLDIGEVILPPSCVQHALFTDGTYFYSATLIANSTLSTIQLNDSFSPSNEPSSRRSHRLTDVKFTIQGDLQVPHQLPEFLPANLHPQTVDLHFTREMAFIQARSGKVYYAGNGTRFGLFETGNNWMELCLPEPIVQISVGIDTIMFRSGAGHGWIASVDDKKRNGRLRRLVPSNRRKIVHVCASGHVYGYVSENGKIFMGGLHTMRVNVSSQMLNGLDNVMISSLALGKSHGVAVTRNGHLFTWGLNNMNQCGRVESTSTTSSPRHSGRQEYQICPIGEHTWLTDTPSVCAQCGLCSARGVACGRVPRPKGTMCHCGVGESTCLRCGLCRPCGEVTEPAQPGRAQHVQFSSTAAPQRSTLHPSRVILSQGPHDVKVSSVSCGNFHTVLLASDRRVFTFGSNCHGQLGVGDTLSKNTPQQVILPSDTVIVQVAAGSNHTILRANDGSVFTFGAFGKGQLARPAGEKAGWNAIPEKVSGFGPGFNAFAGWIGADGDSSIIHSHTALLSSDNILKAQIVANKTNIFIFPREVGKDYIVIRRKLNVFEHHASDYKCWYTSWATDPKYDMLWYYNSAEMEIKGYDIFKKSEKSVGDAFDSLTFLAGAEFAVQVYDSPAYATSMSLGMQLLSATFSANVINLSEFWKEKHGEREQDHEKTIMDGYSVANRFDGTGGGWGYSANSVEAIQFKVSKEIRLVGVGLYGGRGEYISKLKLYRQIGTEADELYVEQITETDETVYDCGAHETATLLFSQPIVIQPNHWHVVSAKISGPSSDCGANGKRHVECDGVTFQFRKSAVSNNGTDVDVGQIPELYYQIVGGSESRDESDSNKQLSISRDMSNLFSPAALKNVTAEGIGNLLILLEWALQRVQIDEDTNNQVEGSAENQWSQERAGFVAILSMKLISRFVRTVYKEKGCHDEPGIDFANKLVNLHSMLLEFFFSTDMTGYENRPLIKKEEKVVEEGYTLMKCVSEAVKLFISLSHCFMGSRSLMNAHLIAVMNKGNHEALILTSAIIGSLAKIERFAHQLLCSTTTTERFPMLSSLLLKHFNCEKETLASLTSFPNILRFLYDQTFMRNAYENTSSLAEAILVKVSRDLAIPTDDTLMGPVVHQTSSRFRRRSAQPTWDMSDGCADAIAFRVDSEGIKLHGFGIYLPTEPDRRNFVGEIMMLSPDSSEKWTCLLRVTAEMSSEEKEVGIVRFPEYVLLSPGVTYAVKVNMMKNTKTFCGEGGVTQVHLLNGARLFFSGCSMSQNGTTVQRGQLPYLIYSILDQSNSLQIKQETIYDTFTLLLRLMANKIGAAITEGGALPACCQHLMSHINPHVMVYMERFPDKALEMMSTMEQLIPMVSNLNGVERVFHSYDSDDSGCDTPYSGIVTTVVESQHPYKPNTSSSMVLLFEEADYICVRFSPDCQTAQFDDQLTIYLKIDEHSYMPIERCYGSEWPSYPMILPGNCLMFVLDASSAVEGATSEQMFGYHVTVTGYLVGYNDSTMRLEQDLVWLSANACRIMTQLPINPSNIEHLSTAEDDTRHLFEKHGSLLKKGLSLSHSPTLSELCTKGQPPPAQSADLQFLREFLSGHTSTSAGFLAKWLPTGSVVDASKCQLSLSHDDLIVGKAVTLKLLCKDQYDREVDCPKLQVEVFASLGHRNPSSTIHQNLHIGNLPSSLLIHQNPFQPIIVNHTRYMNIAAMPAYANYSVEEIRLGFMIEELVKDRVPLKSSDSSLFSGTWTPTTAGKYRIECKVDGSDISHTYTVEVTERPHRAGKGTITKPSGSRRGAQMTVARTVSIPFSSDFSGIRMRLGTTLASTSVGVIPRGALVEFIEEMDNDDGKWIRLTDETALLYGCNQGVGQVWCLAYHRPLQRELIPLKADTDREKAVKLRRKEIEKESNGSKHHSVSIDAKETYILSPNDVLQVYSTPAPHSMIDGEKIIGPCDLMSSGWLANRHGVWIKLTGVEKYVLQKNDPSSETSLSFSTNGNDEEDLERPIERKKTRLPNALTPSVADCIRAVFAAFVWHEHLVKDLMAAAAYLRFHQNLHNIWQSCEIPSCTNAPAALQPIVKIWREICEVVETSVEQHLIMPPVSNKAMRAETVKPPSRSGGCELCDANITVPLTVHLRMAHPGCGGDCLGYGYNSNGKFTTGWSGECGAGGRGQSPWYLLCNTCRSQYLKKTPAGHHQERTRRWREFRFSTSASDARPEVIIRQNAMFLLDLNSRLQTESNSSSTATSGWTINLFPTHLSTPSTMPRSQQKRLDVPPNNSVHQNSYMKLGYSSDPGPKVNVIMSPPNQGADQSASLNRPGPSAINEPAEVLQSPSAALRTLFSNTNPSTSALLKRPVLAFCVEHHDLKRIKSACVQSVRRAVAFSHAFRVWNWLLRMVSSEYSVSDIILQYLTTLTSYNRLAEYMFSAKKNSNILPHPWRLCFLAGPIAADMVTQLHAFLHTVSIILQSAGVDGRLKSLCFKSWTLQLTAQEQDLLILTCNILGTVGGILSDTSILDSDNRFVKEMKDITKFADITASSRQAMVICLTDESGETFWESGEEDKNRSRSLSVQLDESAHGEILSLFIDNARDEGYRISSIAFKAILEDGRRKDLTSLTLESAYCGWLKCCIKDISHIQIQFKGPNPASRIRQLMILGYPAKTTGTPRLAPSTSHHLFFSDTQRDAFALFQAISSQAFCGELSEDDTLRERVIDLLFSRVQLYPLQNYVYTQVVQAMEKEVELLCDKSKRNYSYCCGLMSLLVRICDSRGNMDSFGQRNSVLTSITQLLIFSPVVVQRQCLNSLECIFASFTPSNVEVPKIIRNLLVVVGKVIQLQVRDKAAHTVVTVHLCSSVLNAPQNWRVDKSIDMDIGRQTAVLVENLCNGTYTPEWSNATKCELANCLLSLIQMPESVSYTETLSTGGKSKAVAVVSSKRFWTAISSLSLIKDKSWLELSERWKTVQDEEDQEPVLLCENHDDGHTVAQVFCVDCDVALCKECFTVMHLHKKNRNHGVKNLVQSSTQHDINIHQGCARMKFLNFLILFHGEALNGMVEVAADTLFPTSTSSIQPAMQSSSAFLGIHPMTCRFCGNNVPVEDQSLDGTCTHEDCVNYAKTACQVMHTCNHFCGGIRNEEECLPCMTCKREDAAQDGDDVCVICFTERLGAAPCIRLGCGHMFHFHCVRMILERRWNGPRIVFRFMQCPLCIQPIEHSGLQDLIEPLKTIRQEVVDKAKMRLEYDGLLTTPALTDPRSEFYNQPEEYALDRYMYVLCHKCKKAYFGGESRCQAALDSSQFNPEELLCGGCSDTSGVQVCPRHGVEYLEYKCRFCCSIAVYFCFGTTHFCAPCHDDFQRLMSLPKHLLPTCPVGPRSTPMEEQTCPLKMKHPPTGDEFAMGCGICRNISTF
UniProt G5ECU1: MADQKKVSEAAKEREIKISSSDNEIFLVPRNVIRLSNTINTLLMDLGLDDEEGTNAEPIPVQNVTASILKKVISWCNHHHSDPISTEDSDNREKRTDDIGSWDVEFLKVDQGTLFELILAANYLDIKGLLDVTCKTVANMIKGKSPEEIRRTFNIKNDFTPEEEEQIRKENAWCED

Target: GS::RPM-1 (C. elegans) (UniProt Q17551)
Test: affinity purification with mass spectrometry; GS-tagged bait captured from cryomilled whole-worm lysate (80 mg total protein) on Dynabeads M280 anti-rabbit IgG, 4 h at 4 °C, five washes with lysis buffer (50 mM Tris HCl or HEPES pH 7.5, 150 mM NaCl, 1.5 mM MgCl2, 10% glycerol, 0.1-0.3% NP-40 or 0.1% CHAPS); in-gel trypsin digestion, LC-MS/MS; seven independent experiments

| binding | Molecule |
| --- | --- |
| binds | SKR-1 (from UniProt G5ECU1 1-176) |
| binds | RAE-1 (protein, UniProt Q93454 1-373) MFGSSGFGNKSMFGGSNISTSTTTPAANTTQNDDFLVDGAPEDTIQVIKFSPTPQDKPMLACGSWDGTIRVWMFNDANTFEGKAQQNIPAPILDIAWIEDSSKIFIACADKEARLWDLASNQVAVVGTHDGPVKTCHWINGNNYQCLMTGSFDKTLRFWDMKNLPNQTQMAQIQLPERVYAADVLYPMAVVALANKHIKVYNLENGPTEVKDIESQLKFQIRCISIFKDKSNQNPAGFALGSIEGRVAVQYVDVANPKDNFTFKCHRSAELVNGFQEIYAVNDICFHPQHGTLVTIGSDGRYSMWDKDARTKLKTSEPHPMPLTCCDVHSSGAFLVYALGYDWSRGHEGNTQPGSKIVIHKCIEDMKPRPTKK |
| binds | PPM-2 (enzyme, UniProt P49596 1-356) MGQTLSEPVTKKESASCANENYLVGSSCMQGWRVDMEDAHTHLLSLPDDPKCAFFAVYDGHGGSKVSQYSGINLHKKVVAQKEFSEGNMKEAIEKGFLELDQQMRVDEETKDDVSGTTAVVVLIKEGDVYCGNAGDSRAVSSVVGEARPLSFDHKPSHETEARRIIAAGGWVEFNRVNGNLALSRALGDFAFKNCDTKPAEEQIVTAFPDVITDKLTPDHEFIVLACDGIWDVMTNQEVVDFVREKLAEKRDPQSICEELLTRCLAPDCQMGGLGCDNMTVVLVGLLHGQSPDTLFTKCARPAVFTGVNNEDGDQNQIQQDISRVINNFDGEQRVNAANQEEEEDDNEPAPANFQV |
| binds | GLO-4 (protein, UniProt Q5DX34 1-1386) MFFKRSTNSRKTSANSSSDTSTSSESLLLPLLNNTKAGARSQKGSVHRQSGKKARRKMMENPYVCSLELDELSADDSIIDYSVFSDDSFLLILLLTSKGDVQAYLETSRDTKPRKNVVNIKTACSLNVSPVTVCIGSQAAFAIFGLADGNLLVTPIRLLIDVTWGGSSWATTTVIDLSLPTVDPCLATPTCTKCFVSNFPPCTMAVVANKAGNILLVDLHLRKCVSELKAPQSLHQIDILLDENSIELLVTGFTGAQWIIPIERSGKGFREVLTTCVPSDLTVLEPATMQFFAADSCGVVALDTTESIVEVYNTFHSLAHSSKRTFKVPPETWMVHAGDNMLFTVSNDNEIRSALHFGFMSSRLEYTLVRTSTNWRPLGIVAMPSRPHKLAGIFVVNERGLVRVEQSTALNLTKIASEFFFRLSPLQLNSKSVAQVANACRIDTAEFQSALIPNLLSTRKNRQLTNKELSQIYSIAKAINLSMSDLLKAFENESIGEQLLPEVLNTIQTNPAKHDNLMQRVVEMFVKRSLSAEGNMDKIREYDAELSNFLARHEHLHKGSVDCAKAGMWKCTQTLVRRDVHETKSIDTSTEVLLYIIKNRLQIWNEANSTDRLQIMSLVCHLDWSKLADADGARVCAILSAWQRDISLPSYHEMCLRIAITNSDRFPRPCQILSLVSSIHILSEKKISNHANLPNFLPLAGGNNCGATITEDDRLMIWGNFTNAQQRMEMPQMNAKSKRSDSVTNGAPTLPPPAPKPEQHLPRVLEYPGGRPRAIACGAEHILVLSSSGQLSAWGGNRFGQCGVGHSFRIANLHQVDGDWPAIEKIACGQFHSAFICSDGSLWTFGWGVWGQLGHGGRNNSNQLVPTRVNGLICKVTQIACGRAHTVVLTDTGRVLVCGSGSYGQMGVDDDIKKVFAFTPLPLGPLRVRDIATHYYHSICITEDNRVFEWGRNPQELKMRMFVMKKIRSAQLKNTEDPSSPSPSTNGSTPRVNLNLPAEIPREDLGLREVKHFLDGNIVSVACGLSHSALITSEGTLYTWGKGLDYQLGHGNKNERMEPHQVFEPNGAKWVNVSLGNNHTIASTDDGSVFAWGKNDFGQCGVLTKKNGNSADVTKKFFFQARDGRRFMPNVDESQFVQKPGLIPDVRVRNLNEDGNEGVDKEEIVDRLKASDVNVVQAVSKHLYSPIEGKCNGSIIEDEPRNGKIQKQNKYDGEDGPLCTTTALVHLIAGDVKRAIRMIEWLKTDSSTCEKSLMVLSSLVWEVMANHEDVQSREALSAAFRHVPMSDSMRKGKQIAQLWPAVWNDERVQSSLSIDEKIAMLDGFTSASKPVSCPTIPSSSLEVSSKIRVYAQCAHAEPAAVGSPPECSTCLDEWTEKVRHTLGTQL |
| binds | FSN-1 (protein, UniProt Q18223 1-332) MAENDGETIVPDEQCNLTASTPMKSSGLEQVESPKERKTSMVECDDEGNPSSGTPDESPKQLTPHSIPPRRRRSPRRPEVSASRLPLKVLNQIFQYLPLKDLRSAMLTCHSWNNALSMEDSDIWQYLLGKKLPEAAVSDPFLLAELGSAKKKLRAWYFAWNTSDISRNNYIRTNGFTVHRQPVAQSTDGVRGKRGISKGVHAFDITWDGPLGTVAVVGIATKHAALHCVGYVALLGSDDQSWGWNLVDNVLMHNGAQLGVYPKMNNPPKYEVGDKIRLIIDCDTHVAYFERNSEFLGIAFNHIPPLRLYPAVCAVYGNTEVTMVYVGSPQMG |
